Reference: US10206906B2, “Synergistic combination of a phenolic-rich maple syrup extract and an antibiotic” (priority 2015, dated 2019)
Some results were stated once for a whole list of compounds, not compound by compound.

System: E. coli CFT073, P. mirabilis HI4320, P. aeruginosa PAO1 and PA14
Assay: Checkerboard microdilution assay, summary over the four strains
Assay type: cell-based
Settings: labelled constituent + gallic acid; range over the four strains
Description: The checkerboard microdilution assay is used for evaluation of in vitro antimicrobial synergy between two compounds (i.e., antibiotic/PRMSE, antibiotic/pure phenolic compound, and pure phenolic compounds with each other). Two-fold serial dilutions are prepared in MHB-II for each of the two compounds under study. The serial dilutions are then loaded into 96 well plates to achieve combinations having different concentrations of each of the two compounds. Each well is subsequently inoculated with 10^6 CFU mL^−1 of the desired bacterial strain and incubated at 37° C. for 18 h under static conditions. The Fractional Inhibitory Concentration Index (FICI) for each combination is calculated by using the following formula: FICcomponent 1=MICcomponent 1, in combination/MICcomponent 1,alone FICI=FICcomponent 1+FICcomponent 2
The FICIs are interpreted as follows: FICI of […] (synergy); 0.5<FICI ≤1 (no interaction/indifference); FICI of >4 (antagonism).

Structure (SMILES)	FICIs of pairs with gallic acid
O=Cc1ccc(O)c(O)c1 [catechaldehyde, 3,4-dihydroxybenzaldehyde]	0.25-0.50
Oc1ccccc1O [catechol, 1,2-dihydroxybenzene]	0.25-0.50
